Measured values reported in PMC7170535.
Results are given in words; binding and its absence hold for the method and conditions named.

Columns and labels:
[1] = molecular target: recombinant inter-α-inhibitor heavy chain 1 (rHC1), wild type (human) (UniProt P19827); assay: SAXS; WT rHC1 at 1.25, 2.5 and 5.0 mg/ml in HEPES-buffered saline pH 7.5 with 2.5 mM EDTA; both purified
[2] = molecular target: recombinant inter-α-inhibitor heavy chain 1 (rHC1), wild type (human) (UniProt P19827); assay: AUC; velocity AUC; 18 μM WT rHC1 in HEPES-buffered saline pH 7.5 with 2.5 mM EDTA; 20 °C, 40,000 rpm; both purified
[3] = molecular target: recombinant inter-α-inhibitor heavy chain 1 (rHC1), wild type (human) (UniProt P19827); assay: AUC; equilibrium AUC; rHC1 at 4, 11 and 22 μM at 0 mM MgCl2 (2.5 mM EDTA); 20 °C; both purified
[4] = molecular target: recombinant inter-α-inhibitor heavy chain 1 (rHC1), wild type (human) (UniProt P19827); assay: SAXS; rHC1 proteins at 1.25, 2.5 and 5.0 mg/ml in HEPES-buffered saline pH 7.5 with 5 mM CaCl2; both purified
[5] = molecular target: recombinant inter-α-inhibitor heavy chain 1 (rHC1), D298A MIDAS mutant (human) (UniProt P19827); assay: SAXS; rHC1 proteins at 1.25, 2.5 and 5.0 mg/ml in HEPES-buffered saline pH 7.5 with 5 mM MnCl2; both purified
[6] = molecular target: recombinant inter-α-inhibitor heavy chain 1 (rHC1), D298A MIDAS mutant (human) (UniProt P19827); assay: SAXS; rHC1 proteins at 1.25, 2.5 and 5.0 mg/ml in HEPES-buffered saline pH 7.5 with 5 mM MgCl2; both purified

Row | binding [1] | binding [2] | binding [4] | binding [5] | binding [6] | Binder | binding [3]
1 | no binding (condition: with 2.5 mM EDTA) | no binding (condition: with 2.5 mM EDTA) | no binding (condition: in 5 mM CaCl2) |  |  | recombinant inter-α-inhibitor heavy chain 1 (rHC1), wild type (protein, UniProt P19827 35-672) SKSSEKRQAVDTAVDGVFIRSLKVNCKVTSRFAHYVVTSQVVNTANEAREVAFDLEIPKTAFISDFAVTADGNAFIGDIKDKVTAWKQYRKAAISGENAGLVRASGRTMEQFTIHLTVNPQSKVTFQLTYEEVLKRNHMQYEIVIKVKPKQLVHHFEIDVDIFEPQGISKLDAQASFLPKELAAQTIKKSFSGKKGHVLFRPTVSQQQSCPTCSTSLLNGHFKVTYDVSRDKICDLLVANNHFAHFFAPQNLTNMNKNVVFVIDISGSMRGQKVKQTKEALLKILGDMQPGDYFDLVLFGTRVQSWKGSLVQASEANLQAAQDFVRGFSLDEATNLNGGLLRGIEILNQVQESLPELSNHASILIMLTDGDPTEGVTDRSQILKNVRNAIRGRFPLYNLGFGHNVDFNFLEVMSMENNGRAQRIYEDHDATQQLQGFYSQVAKPLLVDVDLQYPQDAVLALTQNHHKQYYEGSEIVVAGRIADNKQSSFKADVQAHGEGQEFSITCLVDEEEMKKLLRERGHMLENHVERLWAYLTIQELLAKRMKVDREERANLSSQALQMSLDYGFVTPLTSMSIRGMADQDGLKPTIDKPSEDSPPLEMLGPRRTFVLSALQPSPTHSSSNTQRLPDRVTGVDTD | no binding (condition: at 0 mM MgCl2 (2.5 mM EDTA))
2 |  |  |  | no binding | no binding | recombinant inter-α-inhibitor heavy chain 1 (rHC1), D298A MIDAS mutant (protein, UniProt P19827 35-672) SKSSEKRQAVDTAVDGVFIRSLKVNCKVTSRFAHYVVTSQVVNTANEAREVAFDLEIPKTAFISDFAVTADGNAFIGDIKDKVTAWKQYRKAAISGENAGLVRASGRTMEQFTIHLTVNPQSKVTFQLTYEEVLKRNHMQYEIVIKVKPKQLVHHFEIDVDIFEPQGISKLDAQASFLPKELAAQTIKKSFSGKKGHVLFRPTVSQQQSCPTCSTSLLNGHFKVTYDVSRDKICDLLVANNHFAHFFAPQNLTNMNKNVVFVIAISGSMRGQKVKQTKEALLKILGDMQPGDYFDLVLFGTRVQSWKGSLVQASEANLQAAQDFVRGFSLDEATNLNGGLLRGIEILNQVQESLPELSNHASILIMLTDGDPTEGVTDRSQILKNVRNAIRGRFPLYNLGFGHNVDFNFLEVMSMENNGRAQRIYEDHDATQQLQGFYSQVAKPLLVDVDLQYPQDAVLALTQNHHKQYYEGSEIVVAGRIADNKQSSFKADVQAHGEGQEFSITCLVDEEEMKKLLRERGHMLENHVERLWAYLTIQELLAKRMKVDREERANLSSQALQMSLDYGFVTPLTSMSIRGMADQDGLKPTIDKPSEDSPPLEMLGPRRTFVLSALQPSPTHSSSNTQRLPDRVTGVDTD | 
